{"source": "patent US20240189279A1", "about": "“IMMUNOMODULATORY COMPOSITIONS AND METHODS OF USE THEREOF” (THE TEXAS A&M UNIVERSITY SYSTEM, priority 2022, published 2024)", "key": {"[1]": {"tested_on": "liver proteome", "test": "Liver untargeted proteomics in WD mice", "type": "in vivo, mice (male B6 129SF1/J)", "conditions": "WD-100 vs WD groups"}, "[2]": {"tested_on": "fecal metabolome", "test": "Fecal untargeted metabolomics in WD mice", "type": "in vivo, mice (male B6 129SF1/J)"}}}
{"smiles": "O=C([O-])Cc1c[nH]c2ccccc12.[Na+]", "note": "[I3A, Indole-3-acetate sodium salt]", "values": [{"measurement": "number of significantly enriched KEGG pathways", "setting": "[1]", "value": 5, "unit": "pathways"}, {"measurement": "effect on fecal microbiota composition and metabolome (overall)", "setting": "[2]; WD fed mice treated with I3A", "value": "minimal effects on the fecal microbiota composition as well as metabolome"}, {"measurement": "fecal metabolome, Hotelling's T2 test of means (centroids)", "setting": "[2]; WD-50 vs WD groups", "value": "not significantly different"}, {"measurement": "fecal metabolome (PCA of untargeted LC-MS data)", "setting": "[2]; WD-100 vs WD groups", "value": "largely overlapped"}]}
